For experiment [1], the target named is T1, endogenous PLEK2 (pleckstrin-2) of NOZ cells (human (endogenous in NOZ)) (UniProt Q9NYT0).
T1 sequence: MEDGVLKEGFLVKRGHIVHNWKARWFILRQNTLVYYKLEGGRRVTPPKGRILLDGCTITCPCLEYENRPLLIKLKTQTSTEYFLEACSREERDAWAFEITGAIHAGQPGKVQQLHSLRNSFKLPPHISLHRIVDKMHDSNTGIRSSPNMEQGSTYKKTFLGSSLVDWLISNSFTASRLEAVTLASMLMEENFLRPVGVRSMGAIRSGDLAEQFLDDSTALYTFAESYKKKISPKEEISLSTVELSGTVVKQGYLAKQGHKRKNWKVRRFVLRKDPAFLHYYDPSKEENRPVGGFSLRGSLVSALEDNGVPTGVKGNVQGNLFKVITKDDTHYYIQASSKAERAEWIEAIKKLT
In words: co-IP; endogenous proteins in NOZ cell lysate, anti-PLEK2 and reciprocal anti-EGFR immunoprecipitation, protein A beads.

In experiment [2] the target is EGFR (epidermal growth factor receptor), overexpressed in 293T cells (UniProt P00533). In words: co-IP; 293T cells overexpressing Flag-PLEK2 and EGFR, IP lysis buffer, antibodies and protein A beads 4 h at 4 °C; also after 50 ng/mL EGF for the indicated times (more PLEK2 bound after 10 or 30 min).
The target is the same in experiment [3]. As to the kind of experiment: co-IP; 293T cells co-expressing Flag-c-CBL, EGFR and PLEK2 (increasing amounts of Myc-PLEK2), immunoprecipitation with Flag antibody.
In experiment [4] the target is endogenous EGFR (epidermal growth factor receptor) of NOZ cells (human (endogenous in NOZ)) (UniProt P00533). In words: co-IP; endogenous proteins in NOZ cell lysate, anti-PLEK2 and reciprocal anti-EGFR immunoprecipitation, protein A beads.

Results are given in words; binding and its absence hold for the method and conditions named. Binding seen in cells or lysates may run through a third protein. Some entries that bind do so weakly or less than the wild type. For some of these results: Where a sequence is shown, tags or fusion partners need not be part of it.

“endogenous EGFR (epidermal growth factor receptor) of NOZ cells (from UniProt P00533 25-1210)”: in experiment [1], the binding entry is “binds”.

B1: Flag-tagged PLEK2 (pleckstrin-2), overexpressed in 293T cells (protein, UniProt Q9NYT0 1-353)
chain: T1 sequence
On to B1, for which the binding result in experiment [2] is “binds”.

B2: Myc-PLEK2, overexpressed in 293T cells (protein, UniProt Q9NYT0 1-353)
chain: T1 sequence
In the case of B2, the binding result in experiment [3] is reported as “binds”.

B3: endogenous PLEK2 (pleckstrin-2) of NOZ cells (protein, UniProt Q9NYT0 1-353)
chain: T1 sequence
For the molecule B3, in experiment [4], the binding result is “binds”.

The values are drawn from PMC6558801.
